No constants are given. Whether binding was seen depends on the method and setting.
Key:
[1] = target: fragaceatoxin C (FraC), wild type (UniProt B9W5G6); assay: crystal structure; water-soluble FraC without lipids or detergents; two crystal forms, 1.70 and 2.10 Å; both purified
[2] = target: fragaceatoxin C (FraC), wild type (UniProt B9W5G6); assay: crystal structure; FraC co-crystallised with the water-soluble lipid DHPC (30 or 50 mM); three crystal forms, 1.6 to 2.3 Å; both purified
[3] = target: fragaceatoxin C (FraC), wild type (UniProt B9W5G6); assay: condition: only after vesicles of SM alone or of DOPC alone; SEC; as a3 but with LUVs of SM alone or of DOPC alone; Superdex 200 10/300 GL in SEC buffer with 3 mM LDAO; both purified
[4] = target: fragaceatoxin C (FraC), wild type (UniProt B9W5G6); assay: SEC-MALS; elution peak of FraC incubated with DOPC vesicles; WTC-030S5 column, MALS/RI/UV, detergent LDAO; both purified
FraC mutein V60E/W149A = FraC mutein V60E/W149A (UniProt B9W5G6); assay: SEC; FraC (50 µM) incubated with DOPC/SM (1:1) LUVs (lipid/protein 200:1) 30 min at room temperature, solubilised with 1% Triton X-100, Resource S in 3 mM LDAO, then Superdex 200 10/300 GL in 50 mM Tris, 200 mM NaCl, pH 7.4, 3 mM LDAO; both purified
[5] = target: FraC mutein V8C/K69C, oxidised (engineered disulfide bond between the N-terminal and beta-core regions) (UniProt B9W5G6); assay: as above

## fragaceatoxin C (FraC), wild type (from UniProt B9W5G6 1-179)
[1]
  binding: no binding (condition: without lipids or detergents)
[2]
  binding: no binding (condition: with DHPC as the only lipid)
[3]
  binding: no binding
[4]
  binding: no binding (condition: after vesicles of DOPC alone)

## FraC mutein V60E/W149A (from UniProt B9W5G6 1-179)
FraC mutein V60E/W149A
  binding: no binding

## FraC mutein V8C/K69C, oxidised (engineered disulfide bond between the N-terminal and beta-core regions) (from UniProt B9W5G6 1-179)
[5]
  binding: no binding

Reference: paper PMC4351601
